The supplement of paper PMC7666118
The other results are listed elsewhere or left out.

Sequences of proteins named here, by UniProt entry; tags and fusion partners are left off. A change or cut given only in a name is not applied to a line headed by its entry.
UniProt P51809, whole entry: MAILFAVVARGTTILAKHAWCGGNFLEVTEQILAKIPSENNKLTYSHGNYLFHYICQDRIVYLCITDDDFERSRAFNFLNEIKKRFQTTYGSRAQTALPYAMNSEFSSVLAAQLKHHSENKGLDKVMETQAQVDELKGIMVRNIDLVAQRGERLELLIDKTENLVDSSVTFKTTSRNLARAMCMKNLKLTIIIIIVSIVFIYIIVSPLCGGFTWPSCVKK
UniProt Q14166: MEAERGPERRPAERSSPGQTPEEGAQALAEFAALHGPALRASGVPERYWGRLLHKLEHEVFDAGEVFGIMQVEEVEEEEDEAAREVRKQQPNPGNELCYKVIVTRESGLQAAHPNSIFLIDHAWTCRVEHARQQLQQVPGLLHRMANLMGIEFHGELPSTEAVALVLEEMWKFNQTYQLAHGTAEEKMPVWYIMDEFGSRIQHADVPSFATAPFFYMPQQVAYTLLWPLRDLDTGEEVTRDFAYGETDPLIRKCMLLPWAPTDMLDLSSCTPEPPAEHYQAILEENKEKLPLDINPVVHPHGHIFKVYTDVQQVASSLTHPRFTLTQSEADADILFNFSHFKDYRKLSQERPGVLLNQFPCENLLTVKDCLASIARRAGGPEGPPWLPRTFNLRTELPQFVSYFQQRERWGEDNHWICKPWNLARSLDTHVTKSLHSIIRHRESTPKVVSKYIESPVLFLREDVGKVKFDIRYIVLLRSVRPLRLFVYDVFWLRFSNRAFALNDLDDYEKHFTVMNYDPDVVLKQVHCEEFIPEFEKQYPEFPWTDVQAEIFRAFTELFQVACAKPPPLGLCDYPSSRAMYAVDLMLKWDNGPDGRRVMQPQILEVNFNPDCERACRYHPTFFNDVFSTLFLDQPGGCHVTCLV
UniProt Q9UEU0: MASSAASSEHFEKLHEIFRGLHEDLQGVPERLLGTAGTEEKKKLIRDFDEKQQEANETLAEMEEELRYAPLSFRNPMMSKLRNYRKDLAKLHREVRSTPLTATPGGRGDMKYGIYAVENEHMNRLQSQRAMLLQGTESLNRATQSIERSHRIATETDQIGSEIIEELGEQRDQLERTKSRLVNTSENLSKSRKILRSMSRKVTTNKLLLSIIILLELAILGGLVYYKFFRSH
UniProt Q9Y5K5, whole entry: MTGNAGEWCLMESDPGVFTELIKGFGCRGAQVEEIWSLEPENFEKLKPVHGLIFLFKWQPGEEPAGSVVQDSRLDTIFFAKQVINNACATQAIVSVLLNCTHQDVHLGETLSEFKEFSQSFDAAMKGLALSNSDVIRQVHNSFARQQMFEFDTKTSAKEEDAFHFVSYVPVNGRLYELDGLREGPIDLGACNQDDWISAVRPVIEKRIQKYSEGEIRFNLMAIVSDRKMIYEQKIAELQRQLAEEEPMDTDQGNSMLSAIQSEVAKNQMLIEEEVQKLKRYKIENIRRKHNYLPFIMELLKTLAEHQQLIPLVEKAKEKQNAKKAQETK
UniProt P07919: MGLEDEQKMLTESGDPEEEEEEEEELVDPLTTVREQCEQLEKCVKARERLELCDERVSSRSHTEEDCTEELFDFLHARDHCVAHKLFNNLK
UniProt Q8WVY7: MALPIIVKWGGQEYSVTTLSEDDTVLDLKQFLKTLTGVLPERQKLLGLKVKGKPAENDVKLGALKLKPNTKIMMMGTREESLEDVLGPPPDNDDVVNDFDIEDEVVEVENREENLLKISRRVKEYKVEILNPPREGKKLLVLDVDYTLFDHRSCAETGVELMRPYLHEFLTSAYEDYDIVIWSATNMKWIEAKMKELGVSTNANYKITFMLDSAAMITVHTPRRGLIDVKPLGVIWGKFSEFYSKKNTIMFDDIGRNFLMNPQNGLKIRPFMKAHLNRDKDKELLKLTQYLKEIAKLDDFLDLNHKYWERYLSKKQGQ
UniProt Q15836, whole entry: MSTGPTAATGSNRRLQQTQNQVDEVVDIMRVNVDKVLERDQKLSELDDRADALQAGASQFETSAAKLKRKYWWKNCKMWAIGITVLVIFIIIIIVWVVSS
UniProt Q13107: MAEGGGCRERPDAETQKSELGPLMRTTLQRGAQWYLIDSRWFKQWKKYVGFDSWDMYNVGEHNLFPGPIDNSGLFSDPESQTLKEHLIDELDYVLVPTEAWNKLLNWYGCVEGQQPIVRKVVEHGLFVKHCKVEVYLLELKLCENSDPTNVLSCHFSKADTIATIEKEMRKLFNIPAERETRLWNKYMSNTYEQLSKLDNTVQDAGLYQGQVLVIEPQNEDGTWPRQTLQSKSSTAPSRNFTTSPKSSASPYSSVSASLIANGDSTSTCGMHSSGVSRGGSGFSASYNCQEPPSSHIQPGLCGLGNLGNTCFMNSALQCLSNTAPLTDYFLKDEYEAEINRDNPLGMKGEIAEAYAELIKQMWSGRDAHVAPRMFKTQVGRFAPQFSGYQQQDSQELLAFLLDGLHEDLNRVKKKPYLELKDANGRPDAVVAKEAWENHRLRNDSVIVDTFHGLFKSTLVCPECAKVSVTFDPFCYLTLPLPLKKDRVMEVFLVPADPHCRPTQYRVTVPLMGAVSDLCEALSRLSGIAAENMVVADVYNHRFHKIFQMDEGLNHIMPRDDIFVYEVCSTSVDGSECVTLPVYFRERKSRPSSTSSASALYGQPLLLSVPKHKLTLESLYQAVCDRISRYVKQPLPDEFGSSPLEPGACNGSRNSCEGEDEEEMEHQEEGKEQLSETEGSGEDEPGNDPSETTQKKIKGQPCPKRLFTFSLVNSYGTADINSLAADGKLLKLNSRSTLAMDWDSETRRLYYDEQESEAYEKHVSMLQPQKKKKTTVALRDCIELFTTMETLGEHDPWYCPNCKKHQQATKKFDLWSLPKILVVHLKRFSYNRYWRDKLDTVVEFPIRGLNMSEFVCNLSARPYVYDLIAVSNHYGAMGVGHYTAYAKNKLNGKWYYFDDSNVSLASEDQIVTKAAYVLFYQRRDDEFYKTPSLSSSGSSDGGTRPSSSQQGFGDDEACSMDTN
UniProt Q70CQ2: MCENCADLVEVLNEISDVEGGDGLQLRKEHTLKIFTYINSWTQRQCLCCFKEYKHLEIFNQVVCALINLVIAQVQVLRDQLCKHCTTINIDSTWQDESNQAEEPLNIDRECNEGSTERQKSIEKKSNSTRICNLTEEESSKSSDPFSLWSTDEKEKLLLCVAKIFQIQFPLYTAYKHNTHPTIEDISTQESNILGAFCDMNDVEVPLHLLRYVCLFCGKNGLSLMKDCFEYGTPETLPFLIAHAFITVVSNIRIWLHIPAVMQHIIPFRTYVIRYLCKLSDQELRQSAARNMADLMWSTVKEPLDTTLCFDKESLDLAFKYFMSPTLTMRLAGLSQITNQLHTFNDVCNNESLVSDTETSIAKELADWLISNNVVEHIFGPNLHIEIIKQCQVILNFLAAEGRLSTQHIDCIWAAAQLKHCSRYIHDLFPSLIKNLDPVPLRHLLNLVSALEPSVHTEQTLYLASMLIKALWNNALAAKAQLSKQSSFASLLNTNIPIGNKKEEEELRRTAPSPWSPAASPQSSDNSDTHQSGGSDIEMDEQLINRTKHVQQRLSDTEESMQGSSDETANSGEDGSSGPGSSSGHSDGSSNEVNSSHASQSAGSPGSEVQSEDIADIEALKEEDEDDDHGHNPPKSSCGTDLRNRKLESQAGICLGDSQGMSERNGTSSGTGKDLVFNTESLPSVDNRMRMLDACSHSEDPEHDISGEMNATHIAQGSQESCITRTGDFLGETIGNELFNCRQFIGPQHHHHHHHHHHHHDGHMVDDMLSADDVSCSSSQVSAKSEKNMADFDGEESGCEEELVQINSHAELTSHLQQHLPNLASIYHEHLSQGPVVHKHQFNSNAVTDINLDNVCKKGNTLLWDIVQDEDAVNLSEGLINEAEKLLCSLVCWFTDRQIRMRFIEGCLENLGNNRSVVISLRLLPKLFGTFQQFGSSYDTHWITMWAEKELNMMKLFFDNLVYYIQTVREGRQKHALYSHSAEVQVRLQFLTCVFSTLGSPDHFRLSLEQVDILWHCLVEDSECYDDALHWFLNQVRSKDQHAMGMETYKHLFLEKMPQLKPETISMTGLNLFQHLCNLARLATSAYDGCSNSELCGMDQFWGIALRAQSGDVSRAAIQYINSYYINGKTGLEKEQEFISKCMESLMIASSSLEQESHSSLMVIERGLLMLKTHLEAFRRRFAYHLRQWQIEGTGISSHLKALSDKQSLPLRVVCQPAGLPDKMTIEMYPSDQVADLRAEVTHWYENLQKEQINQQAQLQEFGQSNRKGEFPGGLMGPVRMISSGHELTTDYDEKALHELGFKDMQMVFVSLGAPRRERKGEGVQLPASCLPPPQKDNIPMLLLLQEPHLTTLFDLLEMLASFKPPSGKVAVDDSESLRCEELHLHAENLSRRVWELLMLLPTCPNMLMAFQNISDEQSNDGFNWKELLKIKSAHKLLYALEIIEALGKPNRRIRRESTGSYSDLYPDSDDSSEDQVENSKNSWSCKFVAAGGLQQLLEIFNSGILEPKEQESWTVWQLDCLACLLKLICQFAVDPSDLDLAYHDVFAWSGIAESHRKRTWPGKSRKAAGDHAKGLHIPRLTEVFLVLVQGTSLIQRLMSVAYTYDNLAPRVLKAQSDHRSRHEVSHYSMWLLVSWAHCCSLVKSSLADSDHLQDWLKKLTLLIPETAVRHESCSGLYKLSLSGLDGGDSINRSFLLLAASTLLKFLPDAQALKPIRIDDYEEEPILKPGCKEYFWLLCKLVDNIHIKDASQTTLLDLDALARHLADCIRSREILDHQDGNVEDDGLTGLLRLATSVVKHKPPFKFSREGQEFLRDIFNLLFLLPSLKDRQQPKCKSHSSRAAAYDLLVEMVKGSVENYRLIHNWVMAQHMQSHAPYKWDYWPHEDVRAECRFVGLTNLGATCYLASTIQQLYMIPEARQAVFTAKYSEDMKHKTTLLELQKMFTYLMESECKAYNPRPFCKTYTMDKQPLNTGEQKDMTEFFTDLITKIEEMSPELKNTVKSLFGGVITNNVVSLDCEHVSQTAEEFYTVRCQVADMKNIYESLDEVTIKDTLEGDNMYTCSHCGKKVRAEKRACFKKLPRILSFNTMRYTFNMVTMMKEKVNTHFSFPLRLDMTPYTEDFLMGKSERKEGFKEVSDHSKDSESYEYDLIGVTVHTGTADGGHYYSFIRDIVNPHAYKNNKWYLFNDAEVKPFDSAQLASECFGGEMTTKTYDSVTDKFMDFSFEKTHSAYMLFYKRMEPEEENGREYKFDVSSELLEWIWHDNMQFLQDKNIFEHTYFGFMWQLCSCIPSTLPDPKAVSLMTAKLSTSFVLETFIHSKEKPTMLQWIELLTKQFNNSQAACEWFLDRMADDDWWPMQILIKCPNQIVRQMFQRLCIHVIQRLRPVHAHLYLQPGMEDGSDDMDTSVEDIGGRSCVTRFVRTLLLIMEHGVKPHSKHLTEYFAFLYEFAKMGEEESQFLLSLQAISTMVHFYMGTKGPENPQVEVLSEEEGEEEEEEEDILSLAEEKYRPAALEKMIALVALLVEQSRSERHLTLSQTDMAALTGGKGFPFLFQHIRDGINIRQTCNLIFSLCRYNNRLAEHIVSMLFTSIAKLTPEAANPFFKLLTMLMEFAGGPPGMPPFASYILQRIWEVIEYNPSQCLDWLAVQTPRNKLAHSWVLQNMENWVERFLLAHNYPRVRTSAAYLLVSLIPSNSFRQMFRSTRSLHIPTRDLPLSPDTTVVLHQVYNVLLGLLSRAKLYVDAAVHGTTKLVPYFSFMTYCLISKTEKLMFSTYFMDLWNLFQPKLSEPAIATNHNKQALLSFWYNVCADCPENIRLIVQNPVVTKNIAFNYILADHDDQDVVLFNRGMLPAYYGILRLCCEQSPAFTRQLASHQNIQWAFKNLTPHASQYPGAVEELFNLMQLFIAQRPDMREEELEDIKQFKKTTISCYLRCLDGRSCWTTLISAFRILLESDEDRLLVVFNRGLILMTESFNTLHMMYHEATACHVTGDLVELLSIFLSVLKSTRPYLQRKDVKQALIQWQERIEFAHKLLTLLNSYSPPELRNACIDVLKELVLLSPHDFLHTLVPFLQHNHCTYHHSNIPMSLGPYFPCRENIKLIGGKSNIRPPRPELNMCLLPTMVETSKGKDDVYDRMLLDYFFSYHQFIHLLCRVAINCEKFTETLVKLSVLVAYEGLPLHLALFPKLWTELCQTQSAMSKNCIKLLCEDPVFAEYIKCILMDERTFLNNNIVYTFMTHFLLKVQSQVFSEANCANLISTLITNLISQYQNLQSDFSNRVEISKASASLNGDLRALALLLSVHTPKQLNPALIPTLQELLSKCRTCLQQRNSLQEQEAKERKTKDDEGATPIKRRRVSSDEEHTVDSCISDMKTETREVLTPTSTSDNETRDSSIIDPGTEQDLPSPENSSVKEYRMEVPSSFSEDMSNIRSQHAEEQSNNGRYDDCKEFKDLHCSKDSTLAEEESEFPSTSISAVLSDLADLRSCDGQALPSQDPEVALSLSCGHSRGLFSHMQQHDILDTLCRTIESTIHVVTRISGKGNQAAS

What follows are targets tested with COc1ccc(Cn2ccc3cc(C)c(C(=O)NO)cc32)cc1 (assay: dose-dependent thermal stabilisation call (2D-TPP, DLPTP, 10% FDR) (binary (1 = stabilised)); higher = stabilised by the compound). Settings: system: HL-60 intact cells; concentration range 0.04-10 µM.
Protocol: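 2D thermal proteome profiling in intact HL-60 cells treated with BRD-3811 (0, 0.04, 0.29, 2, 10 uM) for 90 min at 37 C, then heated 3 min at one of 12 temperatures (42-63.9 C). Soluble protein was quantified by TMT10 MS. The value is the DLPTP call of the paper: dose-dependent thermal stabilisation over all temperatures at 10% FDR (F-test of a dose-response against a flat model); one experiment, one call per tested protein.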

Target	dose-dependent thermal stabilisation call
VLDLR (UniProt P98155)	inactive: 0
VAMP7 (UniProt P51809)	inactive: 0
TTC27 (UniProt Q6P3X3)	inactive: 0
VAV3 (UniProt Q9UKW4)	inactive: 0
UQCRFS1 (UniProt P47985)	inactive: 0
VAPA (UniProt Q9P0L0)	inactive: 0
TTLL12 (UniProt Q14166)	inactive: 0
VARS (UniProt P26640)	inactive: 0
TXNRD2 (UniProt Q9NNW7)	inactive: 0
VTI1B (UniProt Q9UEU0)	inactive: 0
USP9X (UniProt Q93008)	inactive: 0
TXNDC4 (UniProt Q9BS26)	inactive: 0
VRK2 (UniProt Q86Y07)	inactive: 0
VPS4B (UniProt O75351)	inactive: 0
VPS45 (UniProt Q9NRW7)	inactive: 0
WBP11 (UniProt Q9Y2W2)	inactive: 0
USP13 (UniProt Q92995)	inactive: 0
UCHL5 (UniProt Q9Y5K5)	inactive: 0
VPS53 (UniProt Q5VIR6)	inactive: 0
VASP (UniProt P50552)	inactive: 0

Target	dose-dependent thermal stabilisation call
VPS41 (UniProt P49754)	inactive: 0
UQCRH (UniProt P07919)	inactive: 0
VPS18 (UniProt Q9P253)	inactive: 0
UBLCP1 (UniProt Q8WVY7)	inactive: 0
USP3 (UniProt Q9Y6I4)	inactive: 0
VAMP3 (UniProt Q15836)	inactive: 0
USP5 (UniProt P45974)	inactive: 0
UNG (UniProt P13051)	inactive: 0
USP14 (UniProt P54578)	inactive: 0
USP4 (UniProt Q13107)	inactive: 0
UPF2 (UniProt Q9HAU5)	inactive: 0
UBE2S (UniProt Q16763)	inactive: 0
TXNDC13 (UniProt Q9H1E5)	inactive: 0
UBAC2 (UniProt Q8NBM4)	inactive: 0
TWF2 (UniProt Q6IBS0)	inactive: 0
USP34 (UniProt Q70CQ2)	inactive: 0
UPF1 (UniProt Q92900)	inactive: 0
VAV1 (UniProt P15498)	inactive: 0
UBIAD1 (UniProt Q9Y5Z9)	inactive: 0
VPS37B (UniProt Q9H9H4)	inactive: 0

An excerpt of these results, in markdown:

| Target | dose-dependent thermal stabilisation call |
| --- | --- |
| VPS18 (UniProt Q9P253) | inactive: 0 |
| VAV1 (UniProt P15498) | inactive: 0 |
